Results as given in patent publication EP0606463B1 (The Administrators of The Tulane Educational Fund, priority 1992, dated 1994).

Assay: general procedure: Boc solid-phase peptide synthesis; benzhydrylamine-polystyrene resin; diisopropylcarbodiimide
Settings: whole synthesis, scale 0.5 mmole

Substance: D-Nal-Cys-Tyr-D-Trp-Lys-Val-Cys-Nal-NH2
- isolated mass: 151 mg
